“And” between values parts separate entries of the source, which are not always exact repeats. Identical values can stand only once. Further values from the same series stand in other lists.
Test: Drug-drug interaction study: plasma pharmacokinetics of single oral famitinib 25 mg alone and with steady-state rifampin 600 mg once daily (LC-MS/MS, noncompartmental analysis)
Details: individual subjects

## CCN(CC)CCN1CCc2[nH]c(/C=C3\C(=O)Nc4ccc(F)cc43)c(C)c2C1=O [famitinib, Famitinib malate]
Famitinib + rifampin period
  Plasma concentration of famitinib, 1h: 7.776 ng/mL and 10.518 ng/mL and 3.966 ng/mL and 5.914 ng/mL and 0.552 ng/mL and 12.500 ng/mL and 4.647 ng/mL and 15.609 ng/mL and 11.994 ng/mL and 14.611 ng/mL and 1.812 ng/mL and 8.640 ng/mL and 6.535 ng/mL and 4.958 ng/mL and 9.293 ng/mL and 10.712 ng/mL and 10.116 ng/mL and 10.765 ng/mL and 19.718 ng/mL and 23.441 ng/mL
  Plasma concentration of famitinib, 2h: 14.862 ng/mL and 14.759 ng/mL and 13.699 ng/mL and 7.465 ng/mL and 3.285 ng/mL and 15.622 ng/mL and 8.853 ng/mL and 13.667 ng/mL and 16.315 ng/mL and 19.826 ng/mL and 3.411 ng/mL and 8.191 ng/mL and 14.774 ng/mL and 9.501 ng/mL and 9.987 ng/mL and 13.531 ng/mL and 14.964 ng/mL and 16.225 ng/mL and 17.565 ng/mL and 16.778 ng/mL
  Plasma concentration of famitinib, 3h: 15.259 ng/mL and 13.022 ng/mL and 15.073 ng/mL and 8.838 ng/mL and 7.065 ng/mL and 13.314 ng/mL and 12.114 ng/mL and 12.313 ng/mL and 14.027 ng/mL and 17.332 ng/mL and 5.397 ng/mL and 8.789 ng/mL and 12.359 ng/mL and 10.523 ng/mL and 14.634 ng/mL and 12.982 ng/mL and 13.901 ng/mL and 11.282 ng/mL and 16.888 ng/mL and 17.548 ng/mL
  Plasma concentration of famitinib, 4h: 13.324 ng/mL and 12.820 ng/mL and 13.884 ng/mL and 9.347 ng/mL and 11.443 ng/mL and 17.240 ng/mL and 13.801 ng/mL and 12.155 ng/mL and 13.689 ng/mL and 13.608 ng/mL and 5.156 ng/mL and 10.280 ng/mL and 8.544 ng/mL and 10.239 ng/mL and 8.814 ng/mL and 8.742 ng/mL and 14.747 ng/mL and 10.966 ng/mL and 16.887 ng/mL and 14.176 ng/mL
  Plasma concentration of famitinib, 5h: 18.925 ng/mL and 19.573 ng/mL and 16.893 ng/mL and 12.716 ng/mL and 20.885 ng/mL and 17.053 ng/mL and 17.122 ng/mL and 19.816 ng/mL and 21.770 ng/mL and 22.538 ng/mL and 14.295 ng/mL and 18.207 ng/mL and 26.542 ng/mL and 14.625 ng/mL and 15.665 ng/mL and 16.668 ng/mL and 25.975 ng/mL and 20.293 ng/mL and 21.859 ng/mL and 21.043 ng/mL
  Plasma concentration of famitinib, 6h: 21.751 ng/mL and 20.560 ng/mL and 13.295 ng/mL and 23.440 ng/mL and 19.179 ng/mL and 21.570 ng/mL and 19.751 ng/mL and 21.278 ng/mL and 21.342 ng/mL and 14.830 ng/mL and 15.025 ng/mL and 23.245 ng/mL and 15.367 ng/mL and 16.932 ng/mL and 15.506 ng/mL and 24.692 ng/mL and 19.501 ng/mL and 19.687 ng/mL and 21.937 ng/mL
  Plasma concentration of famitinib, 8h: 22.088 ng/mL and 17.194 ng/mL and 18.589 ng/mL and 14.154 ng/mL and 20.082 ng/mL and 15.200 ng/mL and 18.343 ng/mL and 15.005 ng/mL and 15.815 ng/mL and 17.957 ng/mL and 11.990 ng/mL and 12.882 ng/mL and 23.009 ng/mL and 13.079 ng/mL and 14.206 ng/mL and 13.607 ng/mL and 24.906 ng/mL and 17.258 ng/mL and 19.760 ng/mL and 21.381 ng/mL
  Plasma concentration of famitinib, 12h: 10.125 ng/mL and 18.760 ng/mL and 11.854 ng/mL and 13.476 ng/mL and 16.479 ng/mL and 15.079 ng/mL and 12.851 ng/mL and 14.643 ng/mL and 11.152 ng/mL and 14.007 ng/mL and 9.937 ng/mL and 14.329 ng/mL and 10.247 ng/mL and 12.360 ng/mL and 13.791 ng/mL and 9.364 ng/mL and 10.898 ng/mL and 16.015 ng/mL and 11.441 ng/mL and 13.329 ng/mL
  Plasma concentration of famitinib, 24h: 5.201 ng/mL and 8.717 ng/mL and 4.514 ng/mL and 6.771 ng/mL and 7.192 ng/mL and 7.459 ng/mL and 6.286 ng/mL and 6.807 ng/mL and 5.753 ng/mL and 6.065 ng/mL and 5.532 ng/mL and 7.040 ng/mL and 4.040 ng/mL and 5.593 ng/mL and 6.278 ng/mL and 4.988 ng/mL and 4.842 ng/mL and 7.070 ng/mL and 5.582 ng/mL and 6.911 ng/mL
  Plasma concentration of famitinib, 48h: 1.523 ng/mL and 2.168 ng/mL and 1.255 ng/mL and 1.960 ng/mL and 1.981 ng/mL and 2.284 ng/mL and 1.725 ng/mL and 2.061 ng/mL and 2.144 ng/mL and 1.686 ng/mL and 1.429 ng/mL and 2.362 ng/mL and 0.918 ng/mL and 1.614 ng/mL and 2.149 ng/mL and 1.809 ng/mL and 1.570 ng/mL and 2.769 ng/mL and 1.812 ng/mL and 2.173 ng/mL
  Plasma concentration of famitinib, 72h: 0.642 ng/mL and 0.667 ng/mL and 0.311 ng/mL and 0.602 ng/mL and 0.641 ng/mL and 0.822 ng/mL and 0.539 ng/mL and 0.733 ng/mL and 0.767 ng/mL and 0.537 ng/mL and 0.432 ng/mL and 0.852 ng/mL and 0.220 ng/mL and 0.591 ng/mL and 0.800 ng/mL and 0.792 ng/mL and 0.514 ng/mL and 1.047 ng/mL and 0.712 ng/mL and 0.823 ng/mL
  Plasma concentration of famitinib, 96h: 0.267 ng/mL and 0.261 ng/mL and 0.122 ng/mL and 0.206 ng/mL and 0.249 ng/mL and 0.328 ng/mL and 0.240 ng/mL and 0.269 ng/mL and 0.237 ng/mL and 0.168 ng/mL and 0.290 ng/mL and 0.089 ng/mL and 0.185 ng/mL and 0.302 ng/mL and 0.345 ng/mL and 0.219 ng/mL and 0.407 ng/mL and 0.325 ng/mL
Famitinib + rifampin period, LLOQ 0.050
  Plasma concentration of famitinib, 144h: 0.055 ng/mL and 0.057 ng/mL and 0.070 ng/mL and 0.053 ng/mL and 0.072 ng/mL and 0.050 ng/mL and 0.065 ng/mL and 0.082 ng/mL and 0.051 ng/mL and 0.083 ng/mL and 0.064 ng/mL
Famitinib alone period
  Plasma concentration of famitinib, 1h: 10.847 ng/mL and 12.773 ng/mL and 10.295 ng/mL and 10.969 ng/mL and 13.903 ng/mL and 26.555 ng/mL
  Plasma concentration of famitinib, 2h: 19.362 ng/mL and 17.877 ng/mL and 15.400 ng/mL and 16.503 ng/mL and 18.719 ng/mL and 35.638 ng/mL
  Plasma concentration of famitinib, 3h: 21.709 ng/mL and 20.490 ng/mL and 16.692 ng/mL and 20.933 ng/mL and 28.240 ng/mL and 37.318 ng/mL
  Plasma concentration of famitinib, 4h: 23.040 ng/mL and 20.547 ng/mL and 21.652 ng/mL and 19.902 ng/mL and 26.805 ng/mL and 37.143 ng/mL
  Plasma concentration of famitinib, 5h: 23.899 ng/mL and 31.460 ng/mL and 32.913 ng/mL and 34.455 ng/mL and 38.570 ng/mL and 47.417 ng/mL and 48.115 ng/mL
  Plasma concentration of famitinib, 6h: 27.121 ng/mL and 34.485 ng/mL and 36.103 ng/mL and 36.767 ng/mL and 33.489 ng/mL and 38.089 ng/mL and 45.213 ng/mL
  Plasma concentration of famitinib, 8h: 23.131 ng/mL and 32.006 ng/mL and 28.312 ng/mL and 40.047 ng/mL and 35.942 ng/mL and 34.604 ng/mL and 44.525 ng/mL
  Plasma concentration of famitinib, 12h: 33.868 ng/mL and 32.063 ng/mL and 29.892 ng/mL and 36.325 ng/mL and 38.189 ng/mL and 26.846 ng/mL and 30.046 ng/mL and 32.411 ng/mL and 29.990 ng/mL and 28.697 ng/mL and 22.626 ng/mL and 21.253 ng/mL and 29.809 ng/mL and 27.794 ng/mL and 35.209 ng/mL and 22.673 ng/mL and 25.658 ng/mL and 31.489 ng/mL and 20.180 ng/mL and 25.649 ng/mL
  Plasma concentration of famitinib, 24h: 22.869 ng/mL and 18.719 ng/mL and 18.827 ng/mL and 23.343 ng/mL and 22.964 ng/mL and 18.391 ng/mL and 23.365 ng/mL and 22.823 ng/mL and 20.812 ng/mL and 16.996 ng/mL and 13.694 ng/mL and 14.316 ng/mL and 17.298 ng/mL and 17.947 ng/mL and 23.155 ng/mL and 17.159 ng/mL and 16.424 ng/mL and 22.872 ng/mL and 15.646 ng/mL and 18.793 ng/mL
  Plasma concentration of famitinib, 48h: 9.513 ng/mL and 8.254 ng/mL and 8.105 ng/mL and 11.504 ng/mL and 11.192 ng/mL and 9.732 ng/mL and 11.197 ng/mL and 12.102 ng/mL and 11.799 ng/mL and 7.958 ng/mL and 6.357 ng/mL and 6.794 ng/mL and 7.622 ng/mL and 7.660 ng/mL and 12.046 ng/mL and 10.239 ng/mL and 9.122 ng/mL and 12.117 ng/mL and 10.002 ng/mL and 10.356 ng/mL
  Plasma concentration of famitinib, 72h: 3.686 ng/mL and 4.390 ng/mL and 3.971 ng/mL and 3.582 ng/mL and 6.835 ng/mL and 5.985 ng/mL and 5.799 ng/mL and 6.271 ng/mL and 7.017 ng/mL and 6.466 ng/mL and 4.181 ng/mL and 2.677 ng/mL and 3.396 ng/mL and 3.152 ng/mL and 3.579 ng/mL and 6.840 ng/mL and 6.734 ng/mL and 4.933 ng/mL and 5.444 ng/mL and 5.401 ng/mL and 5.502 ng/mL
  Plasma concentration of famitinib, 96h: 2.365 ng/mL and 2.387 ng/mL and 1.873 ng/mL and 1.665 ng/mL and 3.753 ng/mL and 3.141 ng/mL and 2.824 ng/mL and 3.335 ng/mL and 4.484 ng/mL and 3.258 ng/mL and 2.306 ng/mL and 1.285 ng/mL and 1.650 ng/mL and 1.224 ng/mL and 1.587 ng/mL and 3.633 ng/mL and 3.718 ng/mL and 2.477 ng/mL and 3.253 ng/mL and 3.695 ng/mL and 3.276 ng/mL
  Plasma concentration of famitinib, 144h: 0.893 ng/mL and 0.785 ng/mL and 0.595 ng/mL and 0.455 ng/mL and 1.139 ng/mL and 1.206 ng/mL and 1.138 ng/mL and 1.141 ng/mL and 1.626 ng/mL and 1.491 ng/mL and 0.727 ng/mL and 0.432 ng/mL and 0.652 ng/mL and 0.295 ng/mL and 0.483 ng/mL and 1.580 ng/mL and 1.789 ng/mL and 0.934 ng/mL and 1.050 ng/mL and 1.762 ng/mL and 1.408 ng/mL
  Plasma concentration of famitinib, 192h: 0.339 ng/mL and 0.310 ng/mL and 0.302 ng/mL and 0.177 ng/mL and 0.295 ng/mL and 0.575 ng/mL and 0.524 ng/mL and 0.462 ng/mL and 0.706 ng/mL and 0.718 ng/mL and 0.307 ng/mL and 0.155 ng/mL and 0.242 ng/mL and 0.098 ng/mL and 0.650 ng/mL and 0.830 ng/mL and 0.363 ng/mL and 0.410 ng/mL and 0.781 ng/mL and 0.642 ng/mL

From article PMC9556364, “The effect of rifampin on the pharmacokinetics of famitinib in healthy subjects” (Cancer Chemotherapy and Pharmacology, 2022)
